Consider one molecule from article PMC7375823.

For this experiment, the target named is T1, IRF3 (human (endogenous in 293T)) (UniProt Q14653).
T1 sequence: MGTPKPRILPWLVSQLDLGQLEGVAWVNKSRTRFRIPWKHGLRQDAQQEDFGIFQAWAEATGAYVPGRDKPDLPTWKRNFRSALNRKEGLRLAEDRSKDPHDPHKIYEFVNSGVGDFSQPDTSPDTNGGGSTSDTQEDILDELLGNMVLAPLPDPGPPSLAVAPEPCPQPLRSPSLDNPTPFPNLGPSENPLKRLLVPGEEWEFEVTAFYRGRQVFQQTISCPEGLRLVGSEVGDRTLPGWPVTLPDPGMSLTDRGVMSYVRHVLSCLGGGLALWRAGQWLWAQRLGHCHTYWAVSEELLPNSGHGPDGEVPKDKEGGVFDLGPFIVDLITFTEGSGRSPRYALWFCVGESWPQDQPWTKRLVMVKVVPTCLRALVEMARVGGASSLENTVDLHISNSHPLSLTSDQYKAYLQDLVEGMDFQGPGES
Description: co-IP; endogenous co-immunoprecipitation in 293T cells, without and following SeV infection.

No constants are given. Whether binding was seen depends on the method and setting. Binding seen in cells or lysates may run through a third protein. Some entries that bind do so weakly or less than the wild type.

B1: DDX56 (protein, UniProt Q9NY93 1-547)
chain: MEDSEALGFEHMGLDPRLLQAVTDLGWSRPTLIQEKAIPLALEGKDLLARARTGSGKTAAYAIPMLQLLLHRKATGPVVEQAVRGLVLVPTKELARQAQSMIQQLATYCARDVRVANVSAAEDSVSQRAVLMEKPDVVVGTPSRILSHLQQDSLKLRDSLELLVVDEADLLFSFGFEEELKSLLCHLPRIYQAFLMSATFNEDVQALKELILHNPVTLKLQESQLPGPDQLQQFQVVCETEEDKFLLLYALLKLSLIRGKSLLFVNTLERSYRLRLFLEQFSIPTCVLNGELPLRSRCHIISQFNQGFYDCVIATDAEVLGAPVKGKRRGRGPKGDKASDPEAGVARGIDFHHVSAVLNFDLPPTPEAYIHRAGRTARANNPGIVLTFVLPTEQFHLGKIEELLSGENRGPILLPYQFRMEEIEGFRYRCRDAMRSVTKQAIREARLKEIKEELLHSEKLKTYFEDNPRDLQLLRHDLPLHPAVVKPHLGHVPDYLVPPALRGLVRPHKKRKKLSSSCRKAKRAKSQNPLRSFKHKGKKFRPTAKPS
B1: the binding entry is “binds”.
